Laboratory results from patent US20110046137A1, “Pyrazole Derivatives as P2X7 Modulators” (Glaxo Group Limited, priority 2007, published 2011).
Some of these results come from one statement about several compounds together.

Molecular target: T1, human recombinant P2X7 receptors (Homo sapiens, UniProt Q99572)
T1 construct: expressed in transfected cells; host or cells: HEK293
T1 sequence (Q99572 1-595): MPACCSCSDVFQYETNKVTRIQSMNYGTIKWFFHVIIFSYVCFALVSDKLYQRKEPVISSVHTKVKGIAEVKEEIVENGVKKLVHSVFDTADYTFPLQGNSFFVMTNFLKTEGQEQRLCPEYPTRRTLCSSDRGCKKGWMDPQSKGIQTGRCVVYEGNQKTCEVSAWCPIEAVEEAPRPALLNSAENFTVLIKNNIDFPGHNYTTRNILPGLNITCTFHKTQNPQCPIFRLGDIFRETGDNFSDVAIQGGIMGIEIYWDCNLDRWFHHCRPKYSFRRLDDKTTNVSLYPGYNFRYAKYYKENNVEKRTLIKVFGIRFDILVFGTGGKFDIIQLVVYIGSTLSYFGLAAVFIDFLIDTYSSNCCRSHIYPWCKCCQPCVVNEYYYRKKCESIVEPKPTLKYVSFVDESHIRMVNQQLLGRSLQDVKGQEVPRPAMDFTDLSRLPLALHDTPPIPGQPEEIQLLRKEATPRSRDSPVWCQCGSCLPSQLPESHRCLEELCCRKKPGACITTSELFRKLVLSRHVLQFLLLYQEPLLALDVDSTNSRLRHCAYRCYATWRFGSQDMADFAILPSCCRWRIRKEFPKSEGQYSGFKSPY
Experiment: Fluorescent Imaging Plate Reader (FLIPR) Ca Assay
Type: cell-based
Details: HEK293 cells expressing human recombinant P2X7; blocking BzATP responses; tested in one and/or the other assay

p1050 values in the FLIPR Ca Assay (human P2X7 receptor antagonist activity), > 4.7:
O=C(Cc1cn(CCNCCO)nc1C(F)(F)F)NCc1ccc(F)cc1Cl [Example 175, N-[(2-chloro-4-fluorophenyl)methyl]-2-[1-{2-[(2-hydroxyethyl)amino]ethyl}-3-(trifluoromethyl)-1H-pyrazol-4-yl]acetamide]
CN(C)CCn1ncc(CC(=O)NCc2ccc(F)cc2Cl)c1C(F)(F)F.Cl [Example 177, N-[(2-chloro-4-fluorophenyl)methyl]-2-[1-[2-(dimethylamino)ethyl]-5-(trifluoromethyl)-1H-pyrazol-4-yl]acetamide hydrochloride]
Cc1nn(Cc2ccccc2)c(C)c1CC(=O)NCc1ccc(F)cc1Cl [Example 52, N-[(2-chloro-4-fluorophenyl)methyl]-2-[3,5-dimethyl-1-(phenylmethyl)-1H-pyrazol-4-yl]acetamide]
COCCn1nc(C)c(CC(=O)NCc2ccc(F)cc2Cl)c1C [Example 144, N-[(2-chloro-4-fluorophenyl)methyl]-2-{3,5-dimethyl-1-[2-(methyloxy)ethyl]-1H-pyrazol-4-yl}acetamide]
Cc1nn(CC(=O)N2CCN(C)CC2)c(C)c1CC(=O)NCc1ccc(F)cc1Cl [Example 130, N-[(2-chloro-4-fluorophenyl)methyl]-2-{3,5-dimethyl-1-[2-(4-methyl-1-piperazinyl)-2-oxoethyl]-1H-pyrazol-4-yl}acetamide]
Cc1nn(C2CCN(Cc3ccccc3)CC2)c(C)c1CC(=O)NCc1ccc(F)cc1Cl [Example 91, N-[(2-chloro-4-fluorophenyl)methyl]-2-{3,5-dimethyl-1-[1-(phenylmethyl)-4-piperidinyl]-1H-pyrazol-4-yl}acetamide]
Cc1ccc(-n2nc(C)c(CC(=O)NCc3ccc(F)cc3Cl)c2C)cn1 [Example 147, N-[(2-chloro-4-fluorophenyl)methyl]-2-[3,5-dimethyl-1-(6-methyl-3-pyridinyl)-1H-pyrazol-4-yl]acetamide]
Cc1nn(-c2ccc(C(F)(F)F)cn2)c(C)c1CC(=O)NCc1ccc(F)cc1Cl [Example 71, N-[(2-chloro-4-fluorophenyl)methyl]-2-{3,5-dimethyl-1-[5-(trifluoromethyl)-2-pyridinyl]-1H-pyrazol-4-yl}acetamide]
Cc1nn(-c2ccccc2)c(C)c1CC(=O)NCc1cccc(Cl)c1Cl [Example 37, N-[(2,3-dichlorophenyl)methyl]-2-(3,5-dimethyl-1-phenyl-1H-pyrazol-4-yl)acetamide]
Cc1nn(-c2ncccn2)c(C)c1CC(=O)NCc1ccc(F)c(F)c1F [Example 181, 2-[3,5-dimethyl-1-(2-pyrimidinyl)-1H-pyrazol-4-yl]-N-[(2,3,4-trifluorophenyl)methyl]acetamide]
Cc1nn(-c2ccccc2)c(C)c1CC(=O)NCc1cc(Cl)cc(Cl)c1 [Example 2, N-[(3,5-dichlorophenyl)methyl]-2-(3,5-dimethyl-1-phenyl-1H-pyrazol-4-yl)acetamide]
Cc1nn(CC(C)(C)O)c(C)c1CC(=O)NCc1cccc(Cl)c1C [Example 167, N-[(3-chloro-2-methylphenyl)methyl]-2-[1-(2-hydroxy-2-methylpropyl)-3,5-dimethyl-1H-pyrazol-4-yl]acetamide]
CCN(CC)C(=O)Cn1nc(C)c(CC(=O)NCc2ccc(F)cc2Cl)c1C [Example 129, 2-[4-(2-{[(2-chloro-4-fluorophenyl)methyl]amino}-2-oxoethyl)-3,5-dimethyl-1H-pyrazol-1-yl]-N,N-diethylacetamide]
Cc1nn(-c2ccccc2)c(C)c1CC(=O)NCc1ccc([N+](=O)[O-])cc1 [Example 18, 2-(3,5-dimethyl-1-phenyl-1H-pyrazol-4-yl)-N-[(4-nitrophenyl)methyl]acetamide]
Cc1nn(Cc2cccnc2)c(C)c1CC(=O)NCc1ccc(F)cc1Cl [Example 118, N-[(2-chloro-4-fluorophenyl)methyl]-2-[3,5-dimethyl-1-(3-pyridinylmethyl)-1H-pyrazol-4-yl]acetamide]
Cc1ccncc1-n1nc(C)c(CC(=O)NCc2ccc(F)cc2Cl)c1C [Example 149, N-[(2-chloro-4-fluorophenyl)methyl]-2-[3,5-dimethyl-1-(4-methyl-3-pyridinyl)-1H-pyrazol-4-yl]acetamide]
Cc1nn(-c2ccccc2)c(C)c1CC(=O)NCc1ccc(F)cc1C(F)(F)F [Example 46, 2-(3,5-dimethyl-1-phenyl-1H-pyrazol-4-yl)-N-{[4-fluoro-2-(trifluoromethyl)phenyl]methyl}acetamide]
Cc1nn(C2CCOCC2)c(C)c1CC(=O)NCc1ccc(F)cc1Cl [Example 87, N-[(2-chloro-4-fluorophenyl)methyl]-2-[3,5-dimethyl-1-(tetrahydro-2H-pyran-4-yl)-1H-pyrazol-4-yl]acetamide]
COc1ccc(Cn2nc(C)c(CC(=O)NCc3ccc(F)cc3Cl)c2C)cc1OC [Example 104, 2-(1-{[3,4-bis(methyloxy)phenyl]methyl}-3,5-dimethyl-1H-pyrazol-4-yl)-N-[(2-chloro-4-fluorophenyl)methyl]acetamide]
Cc1nn(-c2ccc(C(=O)NCCN(C)C)cc2)c(C)c1CC(=O)NCc1ccc(F)cc1Cl [Example 156, 4-[4-(2-{[(2-chloro-4-fluorophenyl)methyl]amino}-2-oxoethyl)-3,5-dimethyl-1H-pyrazol-1-yl]-N-[2-(dimethylamino)ethyl]benzamide]
Cc1nn(CCNC2CCCCC2)c(C)c1CC(=O)NCc1ccc(F)cc1Cl [Example 134, N-[(2-chloro-4-fluorophenyl)methyl]-2-{1-[2-(cyclohexylamino)ethyl]-3,5-dimethyl-1H-pyrazol-4-yl}acetamide]
Cc1nn(-c2ccccc2)c(C)c1CC(=O)NCc1c(F)cccc1Cl [Example 43, N-[(2-chloro-6-fluorophenyl)methyl]-2-(3,5-dimethyl-1-phenyl-1H-pyrazol-4-yl)acetamide]
Cc1nn(CCN(C)C)c(C)c1CC(=O)NCc1ccc(F)cc1Cl [Example 49, N-[(2-chloro-4-fluorophenyl)methyl]-2-{1-[2-(dimethylamino)ethyl]-3,5-dimethyl-1H-pyrazol-4-yl}acetamide]
Cc1c(CC(=O)NCc2ccc(F)cc2Cl)cnn1-c1ccccc1.O=C(O)C(F)(F)F [Example 119, N-[(2-chloro-4-fluorophenyl)methyl]-2-(5-methyl-1-phenyl-1H-pyrazol-4-yl)acetamide trifluoroacetate]
Cc1ccc(-n2nc(C)c(CC(=O)NCc3ccc(F)cc3Cl)c2C)c(C)n1 [Example 148, N-[(2-chloro-4-fluorophenyl)methyl]-2-[1-(2,6-dimethyl-3-pyridinyl)-3,5-dimethyl-1H-pyrazol-4-yl]acetamide]
Cc1nn(-c2ccccc2)c(C)c1CC(=O)NCc1cc(C(F)(F)F)ccc1Cl [Example 44, N-{[2-chloro-5-(trifluoromethyl)phenyl]methyl}-2-(3,5-dimethyl-1-phenyl-1H-pyrazol-4-yl)acetamide]
Cc1nn(CC(C)(C)O)c(C)c1CC(=O)NCc1ccc(F)cc1Cl [Example 165, N-[(2-chloro-4-fluorophenyl)methyl]-2-[1-(2-hydroxy-2-methylpropyl)-3,5-dimethyl-1H-pyrazol-4-yl]acetamide]
Cc1nn(CC2CCCCC2)c(C)c1CC(=O)NCc1ccc(F)cc1Cl [Example 107, N-[(2-chloro-4-fluorophenyl)methyl]-2-[1-(cyclohexylmethyl)-3,5-dimethyl-1H-pyrazol-4-yl]acetamide]
COCCNCCn1ncc(CC(=O)NCc2ccc(F)cc2Cl)c1C(F)(F)F.Cl [Example 180, N-[(2-chloro-4-fluorophenyl)methyl]-2-[1-(2-{[2-(methyloxy)ethyl]amino}ethyl)-5-(trifluoromethyl)-1H-pyrazol-4-yl]acetamide hydrochloride]
Cc1nn(CC(C)C)c(C)c1CC(=O)NCc1ccc(F)cc1Cl [Example 85, N-[(2-chloro-4-fluorophenyl)methyl]-2-[3,5-dimethyl-1-(2-methylpropyl)-1H-pyrazol-4-yl]acetamide]
